PubChem BioAssay AID1508597 | Cure First, 2020

- Aim: 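Genes whose silencing sensitises or protects ovarian cancer cells against rucaparib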 (primary screen)
- System: human ovarian carcinoma lines grown from tumours: OCI-P5x (papillary serous) and OCI-C5x (clear cell)
- Reagents: siRNA pool against human genes, 1.25 pmol siRNA per well
- Time to read-out: 72 h or 96 h, depending on the cell culture
- Challenge: rucaparib 20 µM (about IC30) or vehicle, present until read-out
- Measured: 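ATP luminescence measured at 72 or 96 h according to the culture, then normalised and expressed as percent viability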
- Scale: viability, normalised: higher = more viable cells remaining
- Active means: 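Active when normalised viability falls below 80 percent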
- Meaning of the calls: active = viability under 80%; inactive = viability 80% or more
Shown is one part, drawn at random, of about 2,100 reagents tested. 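Calls flag viability under 80% in either arm, not effects specific to rucaparib; the reference for percent is not stated.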 A reagent listed more than once was tested more than once; the source does not tell the runs apart. Reagent sequences are not shown. Not given: the 100% reference.

gene | rucaparib or vehicle | cell line | technical replicate | viability, normalised (%) | Outcome
CDC5L | Rucaparib | OCI-C5x (clear cell) | 1 | 54.7 | active
CDC5L | Rucaparib | OCI-C5x (clear cell) | 2 | 50.4 | active
CDC5L | Rucaparib | OCI-C5x (clear cell) | 3 | 48.4 | active
CDC5L | Rucaparib | OCI-P5x (serous) | 1 | 87.5 | inactive
CDC5L | Rucaparib | OCI-P5x (serous) | 2 | 91.7 | inactive
CDC5L | Rucaparib | OCI-P5x (serous) | 3 | 66.2 | active
CDC5L | Vehicle | OCI-C5x (clear cell) | 1 | 20.7 | active
CDC5L | Vehicle | OCI-C5x (clear cell) | 2 | 30.5 | active
CDC5L | Vehicle | OCI-C5x (clear cell) | 3 | 22.2 | active
CDC5L | Vehicle | OCI-P5x (serous) | 1 | 56.8 | active
CDC5L | Vehicle | OCI-P5x (serous) | 2 | 67.3 | active
CDC5L | Vehicle | OCI-P5x (serous) | 3 | 61.3 | active
RIPK1 | Rucaparib | OCI-C5x (clear cell) | 1 | 50.3 | active
RIPK1 | Rucaparib | OCI-C5x (clear cell) | 2 | 41.6 | active
RIPK1 | Rucaparib | OCI-C5x (clear cell) | 3 | 55.2 | active
RIPK1 | Rucaparib | OCI-P5x (serous) | 1 | 64.2 | active
RIPK1 | Rucaparib | OCI-P5x (serous) | 2 | 55.7 | active
RIPK1 | Rucaparib | OCI-P5x (serous) | 3 | 78.3 | active
RIPK1 | Vehicle | OCI-C5x (clear cell) | 1 | 67.7 | active
RIPK1 | Vehicle | OCI-C5x (clear cell) | 2 | 41.7 | active
RIPK1 | Vehicle | OCI-C5x (clear cell) | 3 | 38.1 | active
RIPK1 | Vehicle | OCI-P5x (serous) | 1 | 54.5 | active
RIPK1 | Vehicle | OCI-P5x (serous) | 2 | 81.5 | inactive
RIPK1 | Vehicle | OCI-P5x (serous) | 3 | 77.1 | active
YES1 | Rucaparib | OCI-C5x (clear cell) | 1 | 41.7 | active
YES1 | Rucaparib | OCI-C5x (clear cell) | 1 | 51.3 | active
YES1 | Rucaparib | OCI-C5x (clear cell) | 2 | 44.4 | active
YES1 | Rucaparib | OCI-C5x (clear cell) | 2 | 51.7 | active
YES1 | Rucaparib | OCI-C5x (clear cell) | 3 | 46.1 | active
YES1 | Rucaparib | OCI-C5x (clear cell) | 3 | 38.5 | active
YES1 | Rucaparib | OCI-P5x (serous) | 1 | 53.9 | active
YES1 | Rucaparib | OCI-P5x (serous) | 1 | 82 | inactive
YES1 | Rucaparib | OCI-P5x (serous) | 2 | 55.8 | active
YES1 | Rucaparib | OCI-P5x (serous) | 2 | 104 | inactive
YES1 | Rucaparib | OCI-P5x (serous) | 3 | 59.3 | active
YES1 | Rucaparib | OCI-P5x (serous) | 3 | 62 | active
YES1 | Vehicle | OCI-C5x (clear cell) | 1 | 94.5 | inactive
YES1 | Vehicle | OCI-C5x (clear cell) | 1 | 60.4 | active
YES1 | Vehicle | OCI-C5x (clear cell) | 2 | 52.3 | active
YES1 | Vehicle | OCI-C5x (clear cell) | 2 | 72.3 | active
YES1 | Vehicle | OCI-C5x (clear cell) | 3 | 59.4 | active
YES1 | Vehicle | OCI-C5x (clear cell) | 3 | 76.3 | active
YES1 | Vehicle | OCI-P5x (serous) | 1 | 69.2 | active
YES1 | Vehicle | OCI-P5x (serous) | 1 | 96.2 | inactive
YES1 | Vehicle | OCI-P5x (serous) | 2 | 72.7 | active
YES1 | Vehicle | OCI-P5x (serous) | 2 | 77.9 | active
YES1 | Vehicle | OCI-P5x (serous) | 3 | 66.6 | active
YES1 | Vehicle | OCI-P5x (serous) | 3 | 82.2 | inactive
TP53BP1 | Rucaparib | OCI-C5x (clear cell) | 1 | 56.3 | active
TP53BP1 | Rucaparib | OCI-C5x (clear cell) | 1 | 69.4 | active
TP53BP1 | Rucaparib | OCI-C5x (clear cell) | 2 | 88.5 | inactive
TP53BP1 | Rucaparib | OCI-C5x (clear cell) | 2 | 65.1 | active
TP53BP1 | Rucaparib | OCI-C5x (clear cell) | 3 | 65.5 | active
TP53BP1 | Rucaparib | OCI-C5x (clear cell) | 3 | 55.7 | active
TP53BP1 | Rucaparib | OCI-P5x (serous) | 1 | 130 | inactive
TP53BP1 | Rucaparib | OCI-P5x (serous) | 1 | 82.2 | inactive
TP53BP1 | Rucaparib | OCI-P5x (serous) | 2 | 128 | inactive
TP53BP1 | Rucaparib | OCI-P5x (serous) | 2 | 91.6 | inactive
TP53BP1 | Rucaparib | OCI-P5x (serous) | 3 | 81.9 | inactive
TP53BP1 | Rucaparib | OCI-P5x (serous) | 3 | 72.2 | active
TP53BP1 | Vehicle | OCI-C5x (clear cell) | 1 | 12.2 | active
TP53BP1 | Vehicle | OCI-C5x (clear cell) | 1 | 79.6 | active
TP53BP1 | Vehicle | OCI-C5x (clear cell) | 2 | 69.9 | active
TP53BP1 | Vehicle | OCI-C5x (clear cell) | 2 | 39.2 | active
TP53BP1 | Vehicle | OCI-C5x (clear cell) | 3 | 84.1 | inactive
TP53BP1 | Vehicle | OCI-C5x (clear cell) | 3 | 63.7 | active
TP53BP1 | Vehicle | OCI-P5x (serous) | 1 | 96.5 | inactive
TP53BP1 | Vehicle | OCI-P5x (serous) | 1 | 100 | inactive
TP53BP1 | Vehicle | OCI-P5x (serous) | 2 | 105 | inactive
TP53BP1 | Vehicle | OCI-P5x (serous) | 2 | 88.1 | inactive
TP53BP1 | Vehicle | OCI-P5x (serous) | 3 | 76.3 | active
TP53BP1 | Vehicle | OCI-P5x (serous) | 3 | 107 | inactive
PDE4B | Rucaparib | OCI-C5x (clear cell) | 1 | 78.2 | active
PDE4B | Rucaparib | OCI-C5x (clear cell) | 2 | 72 | active
PDE4B | Rucaparib | OCI-C5x (clear cell) | 3 | 63.5 | active
PDE4B | Rucaparib | OCI-P5x (serous) | 1 | 55.9 | active
PDE4B | Rucaparib | OCI-P5x (serous) | 2 | 49.9 | active
PDE4B | Rucaparib | OCI-P5x (serous) | 3 | 69.7 | active
PDE4B | Vehicle | OCI-C5x (clear cell) | 1 | 36.2 | active
PDE4B | Vehicle | OCI-C5x (clear cell) | 2 | 49.1 | active
PDE4B | Vehicle | OCI-C5x (clear cell) | 3 | 42 | active
PDE4B | Vehicle | OCI-P5x (serous) | 1 | 52.6 | active
PDE4B | Vehicle | OCI-P5x (serous) | 2 | 59.7 | active
PDE4B | Vehicle | OCI-P5x (serous) | 3 | 63.5 | active

11 entries already listed, arranged by “viability, normalised (%)”, descending:
gene | rucaparib or vehicle | cell line | technical replicate | viability, normalised (%) | Outcome
TP53BP1 | Rucaparib | OCI-P5x (serous) | 1 | 130 | inactive
TP53BP1 | Rucaparib | OCI-P5x (serous) | 2 | 128 | inactive
TP53BP1 | Rucaparib | OCI-P5x (serous) | 2 | 91.6 | inactive
TP53BP1 | Rucaparib | OCI-P5x (serous) | 1 | 82.2 | inactive
TP53BP1 | Rucaparib | OCI-P5x (serous) | 3 | 81.9 | inactive
TP53BP1 | Vehicle | OCI-C5x (clear cell) | 1 | 79.6 | active
TP53BP1 | Rucaparib | OCI-P5x (serous) | 3 | 72.2 | active
TP53BP1 | Vehicle | OCI-C5x (clear cell) | 2 | 69.9 | active
TP53BP1 | Rucaparib | OCI-C5x (clear cell) | 3 | 65.5 | active
TP53BP1 | Rucaparib | OCI-C5x (clear cell) | 3 | 55.7 | active
TP53BP1 | Vehicle | OCI-C5x (clear cell) | 1 | 12.2 | active
